# Source: PubChem BioAssay AID1347076 (National Center for Advancing Translational Sciences (NCATS), 2019)
# Hit rate of the full screen: of about 400,000 compounds, about 13,000 (3.2%) were called active. This list was built around the results that the source calls inconclusive (neither active nor inactive); the mix of calls is not that of the screen. The call rests on the fitted dose curve; in most records, active means well fitted cell-killing curve with a large enough effect; inconclusive means small, poorly fitted or top-dose-only effect, or effect the other way; inactive means flat fitted curve, though single readings scatter. Potencies of inconclusive entries are doubtful fits and often do not repeat.
# Experiment: qHTS assay for MDR1-selective chemotherapeutics: Primary screen using the drug-selected MDR subline cells KB-V1; further: nearly all actives have a fitted effect of over 60% in size
# Conditions: KB-V1 MDR cells viability, CellTiter-Glo, 72 h; series mostly up to 46.1 µM
# Procedure, shortened: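 qHTS viability screen in drug-selected KB-V1 MDR cells: 72 h compound treatment at 37 degrees C, ATP luminescence end point.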
# Potency means the concentration at half of the fitted maximal effect.
row,Structure (SMILES),Potency
1,Cc1ccc(Cc2nnc(SCC(=O)Nc3ccccc3)[nH]c2=O)cc1,"inconclusive: 2.06 µM [rising, full curve, poor fit]"
2,Cc1ccc(C(C)C)c(OCC(=O)N2CCN(c3ncccn3)CC2)c1,"inconclusive: 18.4 µM [cytotoxic, single point]"
3,COc1cc(NC(=O)c2cccc3c2C(=O)N(C2CCCCC2)C3)cc(OC)c1OC,"inconclusive: 16.4 µM [cytotoxic, single point]"
4,Cc1cc(C)nc(N2CCCC(C(=O)NCc3ccccc3)C2)n1 (stereo not given),inactive
5,CC(=O)c1ccc(N2CCN(C(=O)Cc3cccs3)CC2)cc1,"inconclusive: 29.1 µM [cytotoxic, single point]"
6,Nn1c(SCC(=O)NC2CCCc3ccccc32)nnc1-c1cccs1 (stereo not given),"inconclusive: 18.4 µM [cytotoxic, partial curve]"
7,Cc1ccc2oc3nc(C)c(C(=O)O)cc3c(=O)c2c1,inactive
8,O=C(CSc1nnc(SCc2ccccc2Cl)s1)N/N=C/c1c[nH]c2ccccc12,"inconclusive: 23.1 µM [cytotoxic, single point]"
9,CC(C)(C)CC(C)(C)N=C1Nc2ccccc2N[C@]12C[C@H]1CCCC(=O)N3CC[C@@H](C2)[C@@H]13,"inconclusive: 8.2 µM [cytotoxic, partial curve]"
10,NC(=O)c1ccc(NC(=O)C2CC2)cc1,inactive
11,CCCCN(C)CCNC(=O)CCn1nc(-c2ccc(Cl)cc2)ccc1=O,inactive
12,CC(C)C(N)c1csc(Nc2nncc3ccccc23)n1 (stereo not given),"inconclusive: 18.4 µM [cytotoxic, partial curve]"
13,Cc1cccc(-[n+]2c(C)cc(C)c3c(=O)[nH]c(=O)[nH]c32)c1,inactive
14,COc1ccc(Oc2c(OC)cc([N+](=O)[O-])c3ncccc23)cc1,"inconclusive: 18.4 µM [cytotoxic, partial curve, poor fit]"
15,Cc1nc(CN(C)C(=O)c2cc(COc3ccc4ncccc4c3)on2)cs1,"inconclusive: 1.84 µM [cytotoxic, partial curve, poor fit]"
16,COc1ccc(CN=Cc2c(O)[nH]c3ccccc23)cc1,"inconclusive: 1.3 µM [rising, full curve]"
17,Cc1ccccc1C(C(=O)NCc1ccccc1)N(Cc1ccco1)C(=O)c1ccccn1 (stereo not given),"inconclusive: 14.6 µM [cytotoxic, partial curve]"
18,COc1cccc(-c2cc(CNC(=O)[C@H]3O[C@@H](n4ccc(N)nc4=O)[C@H](O)[C@@H]3O)no2)c1,inactive
19,CCOC(=O)c1c(C)[nH]c(C)c1C(=O)COC(=O)c1cc2ccccc2cc1OC,"inconclusive: 29.1 µM [cytotoxic, single point]"
20,O=S(=O)(c1ccc(-c2csc(-c3cccnc3)n2)cc1)N1CCCCC1,"inconclusive: 13 µM [cytotoxic, partial curve]"
21,COc1ccc(Cl)cc1NC(=O)CN(C)C(=O)c1ccc(OCc2ccccc2)c(OC)c1,"inconclusive: 5.17 µM [cytotoxic, full curve]"
22,O=C(O)COc1ccc(C(=O)c2ccccc2)cc1,inactive
23,COc1ccc(C(=O)[C@@H]2CC[C@](C)(C(=O)O)C2(C)C)cc1,inactive

row,Structure (SMILES),Potency
1,Nc1n[nH]c(C2CCCCC2)n1,inactive
2,CCCCNC(=O)c1nc(C2CCNCC2)oc1-c1cccc(C(F)(F)F)c1,inactive
3,C=CCOC(=O)C1=C(C)NC(SCC)=C(C#N)C1c1ccc(Cl)cc1 (stereo not given),active: 23.1 µM
4,O=C(CCCN1C(=O)/C(=C/c2cccs2)SC1=S)Nc1ccc(O)cc1,"inconclusive: 0.0073 µM [rising, full curve, poor fit]"
5,Cc1[nH][nH]c(=O)c1C(c1c(C)[nH][nH]c1=O)c1cn(Cc2ccc(F)cc2)c2ccccc12,"inconclusive: 23.1 µM [cytotoxic, single point]"
6,COc1ccc(CN2CCCC(CNC(=O)c3ccc(F)cc3)C2)c(F)c1 (stereo not given),inactive
7,CCOC(=O)c1c(-c2ccc(OC)cc2)oc2ccc(OCc3ccccc3C)cc12,"inconclusive: 29.1 µM [rising, single point]"
8,COC(=O)c1ccccc1NC(=O)CCS(=O)(=O)c1cc2c(cc1C)NC(=O)CO2,inactive
9,O=C(CN1CCN(S(=O)(=O)N2CCCCC2)CC1)Nc1ccc(Cl)c(Cl)c1,active: 13 µM
10,O=C(Nc1ccc2ccccc2c1)Nc1nnc(-c2ccc(F)cc2)s1,inactive
11,Cc1cc(C)c(C(=O)CN2C(=O)NC3(CCCCCC3)C2=O)cc1C,inactive
12,Cc1cc(N/N=C/c2ccc(F)cc2)nc(-n2nc(C)cc2C)n1,inactive
13,COc1ccccc1NC(=S)N1CCN(c2nc(-c3ccccc3)cs2)CC1,"inconclusive: 25.9 µM [cytotoxic, single point]"
14,CC1CCCN(C(=O)c2ccc(S(=O)(=O)N3CCC(c4nc5ccccc5s4)CC3)cc2)C1 (stereo not given),"inconclusive: 16.4 µM [cytotoxic, partial curve, poor fit]"
15,CCCCCCc1ccc(N2C[C@H](Cc3ccccc3)[C@@H](CC(=O)Nc3ccccc3)C2=O)cc1,"inconclusive: 18.4 µM [cytotoxic, single point]"
16,CC(=O)N(Cc1c(C)nn(-c2ccccc2)c1Cl)c1ccc(Cl)cc1,"inconclusive: 23.1 µM [cytotoxic, partial curve]"
17,CCOC(=O)C1=C(COC(=O)COc2ccc(C#N)cc2)NC(=O)NC1C (stereo not given),inactive
18,CCN(C(=O)c1nn(-c2ccc(OC)c(Cl)c2)c(=O)c2c1c1ccccc1n2C)c1cccc(C(F)(F)F)c1,"inconclusive: 6.51 µM [cytotoxic, full curve]"
19,CCCC(C(=O)NCC1CCCO1)N(C(=O)CNS(=O)(=O)c1ccccc1)c1ccc(F)cc1 (stereo not given),inactive
20,CC(C)Cn1c(/C=N/Nc2nc3ccccc3[nH]2)nc2ccccc21,"inconclusive: 2.06 µM [cytotoxic, full curve]"
21,O=C(OCc1cc(=O)n2nc(-c3cccs3)sc2n1)c1ccc(Cl)cc1,inactive
22,CCCCN1C(=O)C(CC(=O)NCCc2ccccn2)CC(C(=O)N(C)C)=C1C (stereo not given),"inconclusive: 20.6 µM [rising, single point]"

# An excerpt of the results above, as a working copy:
row,Structure (SMILES),Potency
4,Cc1cc(C)nc(N2CCCC(C(=O)NCc3ccccc3)C2)n1 (stereo not given),inactive
5,CC(=O)c1ccc(N2CCN(C(=O)Cc3cccs3)CC2)cc1,"inconclusive: 29.1 µM [cytotoxic, single point]"
6,Nn1c(SCC(=O)NC2CCCc3ccccc32)nnc1-c1cccs1 (stereo not given),"inconclusive: 18.4 µM [cytotoxic, partial curve]"
7,Cc1ccc2oc3nc(C)c(C(=O)O)cc3c(=O)c2c1,inactive
8,O=C(CSc1nnc(SCc2ccccc2Cl)s1)N/N=C/c1c[nH]c2ccccc12,"inconclusive: 23.1 µM [cytotoxic, single point]"
9,CC(C)(C)CC(C)(C)N=C1Nc2ccccc2N[C@]12C[C@H]1CCCC(=O)N3CC[C@@H](C2)[C@@H]13,"inconclusive: 8.2 µM [cytotoxic, partial curve]"
10,NC(=O)c1ccc(NC(=O)C2CC2)cc1,inactive
11,CCCCN(C)CCNC(=O)CCn1nc(-c2ccc(Cl)cc2)ccc1=O,inactive
12,CC(C)C(N)c1csc(Nc2nncc3ccccc23)n1 (stereo not given),"inconclusive: 18.4 µM [cytotoxic, partial curve]"
13,Cc1cccc(-[n+]2c(C)cc(C)c3c(=O)[nH]c(=O)[nH]c32)c1,inactive
14,COc1ccc(Oc2c(OC)cc([N+](=O)[O-])c3ncccc23)cc1,"inconclusive: 18.4 µM [cytotoxic, partial curve, poor fit]"
15,Cc1nc(CN(C)C(=O)c2cc(COc3ccc4ncccc4c3)on2)cs1,"inconclusive: 1.84 µM [cytotoxic, partial curve, poor fit]"
16,COc1ccc(CN=Cc2c(O)[nH]c3ccccc23)cc1,"inconclusive: 1.3 µM [rising, full curve]"
17,Cc1ccccc1C(C(=O)NCc1ccccc1)N(Cc1ccco1)C(=O)c1ccccn1 (stereo not given),"inconclusive: 14.6 µM [cytotoxic, partial curve]"
